Data taken from the supplement of paper PMC10849652.
The list shows a part of the results.

The chains behind the UniProt entries cited, without tags or fusion partners. Where a name states a change or a piece, a line headed by the entry shows the natural chain unless it says otherwise.
UniProt Q8TDZ2: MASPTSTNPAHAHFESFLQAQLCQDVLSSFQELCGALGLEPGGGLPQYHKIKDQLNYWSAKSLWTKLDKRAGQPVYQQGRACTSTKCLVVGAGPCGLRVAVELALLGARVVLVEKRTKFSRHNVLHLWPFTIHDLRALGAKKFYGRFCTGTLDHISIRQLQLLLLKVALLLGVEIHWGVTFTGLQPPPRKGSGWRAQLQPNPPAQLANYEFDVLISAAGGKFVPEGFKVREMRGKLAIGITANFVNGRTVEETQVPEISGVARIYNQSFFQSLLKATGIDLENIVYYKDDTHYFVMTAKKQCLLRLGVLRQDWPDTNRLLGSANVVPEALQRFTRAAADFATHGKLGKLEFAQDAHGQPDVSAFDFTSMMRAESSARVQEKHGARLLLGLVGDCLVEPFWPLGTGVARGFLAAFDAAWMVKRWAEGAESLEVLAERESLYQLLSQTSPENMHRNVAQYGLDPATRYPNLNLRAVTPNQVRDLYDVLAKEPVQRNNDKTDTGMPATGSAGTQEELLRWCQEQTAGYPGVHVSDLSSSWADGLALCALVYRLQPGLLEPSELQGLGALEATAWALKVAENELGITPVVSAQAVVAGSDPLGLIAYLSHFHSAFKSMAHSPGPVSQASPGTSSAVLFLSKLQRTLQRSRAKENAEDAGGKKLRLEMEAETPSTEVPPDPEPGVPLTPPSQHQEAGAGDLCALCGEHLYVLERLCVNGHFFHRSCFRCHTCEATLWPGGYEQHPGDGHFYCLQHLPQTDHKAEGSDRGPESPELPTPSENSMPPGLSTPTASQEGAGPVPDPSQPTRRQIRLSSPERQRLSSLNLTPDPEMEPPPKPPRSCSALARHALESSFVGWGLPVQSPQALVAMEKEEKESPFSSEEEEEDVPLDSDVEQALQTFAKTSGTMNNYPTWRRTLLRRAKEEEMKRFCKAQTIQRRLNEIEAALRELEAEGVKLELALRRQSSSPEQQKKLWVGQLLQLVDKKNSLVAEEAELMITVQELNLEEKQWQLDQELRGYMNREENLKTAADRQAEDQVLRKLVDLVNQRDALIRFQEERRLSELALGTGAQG
UniProt A9UHW6: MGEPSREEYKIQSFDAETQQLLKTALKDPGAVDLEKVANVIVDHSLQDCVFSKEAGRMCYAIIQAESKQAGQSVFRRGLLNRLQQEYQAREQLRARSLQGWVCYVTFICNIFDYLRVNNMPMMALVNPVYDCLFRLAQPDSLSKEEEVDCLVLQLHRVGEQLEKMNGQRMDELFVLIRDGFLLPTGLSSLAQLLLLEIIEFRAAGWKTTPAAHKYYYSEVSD
UniProt P40692: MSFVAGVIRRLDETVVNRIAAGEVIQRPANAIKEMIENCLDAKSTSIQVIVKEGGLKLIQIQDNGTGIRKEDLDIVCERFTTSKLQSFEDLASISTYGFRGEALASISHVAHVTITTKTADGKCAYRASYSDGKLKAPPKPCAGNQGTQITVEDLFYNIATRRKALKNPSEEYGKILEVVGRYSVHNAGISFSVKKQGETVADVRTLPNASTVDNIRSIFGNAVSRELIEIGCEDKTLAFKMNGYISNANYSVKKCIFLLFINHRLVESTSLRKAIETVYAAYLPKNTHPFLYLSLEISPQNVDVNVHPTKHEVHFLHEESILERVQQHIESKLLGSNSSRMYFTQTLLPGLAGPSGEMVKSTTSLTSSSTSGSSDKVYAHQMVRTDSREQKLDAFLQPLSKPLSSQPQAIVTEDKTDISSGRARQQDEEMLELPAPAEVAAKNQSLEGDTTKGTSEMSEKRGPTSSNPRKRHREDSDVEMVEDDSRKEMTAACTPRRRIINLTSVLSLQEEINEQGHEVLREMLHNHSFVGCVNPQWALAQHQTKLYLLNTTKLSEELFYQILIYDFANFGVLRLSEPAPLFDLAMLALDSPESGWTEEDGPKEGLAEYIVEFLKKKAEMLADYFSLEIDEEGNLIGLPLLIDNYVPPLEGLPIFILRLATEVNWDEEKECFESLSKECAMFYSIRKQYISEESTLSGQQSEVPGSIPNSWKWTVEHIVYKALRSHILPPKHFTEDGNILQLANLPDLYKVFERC
UniProt Q9BWT6: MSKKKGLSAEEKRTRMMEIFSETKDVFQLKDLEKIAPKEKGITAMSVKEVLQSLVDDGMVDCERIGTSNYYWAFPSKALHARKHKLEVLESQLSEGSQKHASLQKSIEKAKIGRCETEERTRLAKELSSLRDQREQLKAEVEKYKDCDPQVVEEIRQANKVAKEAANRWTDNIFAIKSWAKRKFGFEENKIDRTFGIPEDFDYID
UniProt Q6WCQ1: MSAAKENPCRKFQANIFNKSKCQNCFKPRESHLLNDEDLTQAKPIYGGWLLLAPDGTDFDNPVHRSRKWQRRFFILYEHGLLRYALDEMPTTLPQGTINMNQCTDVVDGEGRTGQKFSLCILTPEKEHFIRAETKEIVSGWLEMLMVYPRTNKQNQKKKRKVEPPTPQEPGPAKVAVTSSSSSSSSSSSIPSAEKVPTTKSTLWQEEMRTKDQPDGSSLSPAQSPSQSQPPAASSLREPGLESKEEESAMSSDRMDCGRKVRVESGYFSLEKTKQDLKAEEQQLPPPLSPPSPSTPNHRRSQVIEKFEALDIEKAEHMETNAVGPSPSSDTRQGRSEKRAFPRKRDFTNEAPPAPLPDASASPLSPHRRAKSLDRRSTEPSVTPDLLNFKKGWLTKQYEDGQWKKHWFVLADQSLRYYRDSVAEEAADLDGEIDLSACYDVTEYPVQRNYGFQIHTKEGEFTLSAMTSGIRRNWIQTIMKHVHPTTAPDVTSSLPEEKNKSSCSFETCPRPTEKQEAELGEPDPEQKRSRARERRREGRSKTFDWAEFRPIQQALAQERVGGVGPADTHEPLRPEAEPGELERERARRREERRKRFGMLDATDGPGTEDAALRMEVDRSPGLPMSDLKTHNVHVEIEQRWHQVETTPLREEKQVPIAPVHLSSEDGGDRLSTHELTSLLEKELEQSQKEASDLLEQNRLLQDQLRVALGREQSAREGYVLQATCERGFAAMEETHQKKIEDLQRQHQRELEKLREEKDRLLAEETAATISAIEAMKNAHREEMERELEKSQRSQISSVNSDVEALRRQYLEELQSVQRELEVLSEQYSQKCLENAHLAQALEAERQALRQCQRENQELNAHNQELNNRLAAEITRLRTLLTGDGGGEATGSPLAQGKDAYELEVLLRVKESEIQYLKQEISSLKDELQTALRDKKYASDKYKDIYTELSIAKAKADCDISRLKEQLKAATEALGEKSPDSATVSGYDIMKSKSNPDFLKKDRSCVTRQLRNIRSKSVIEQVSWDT
UniProt Q9UNW1: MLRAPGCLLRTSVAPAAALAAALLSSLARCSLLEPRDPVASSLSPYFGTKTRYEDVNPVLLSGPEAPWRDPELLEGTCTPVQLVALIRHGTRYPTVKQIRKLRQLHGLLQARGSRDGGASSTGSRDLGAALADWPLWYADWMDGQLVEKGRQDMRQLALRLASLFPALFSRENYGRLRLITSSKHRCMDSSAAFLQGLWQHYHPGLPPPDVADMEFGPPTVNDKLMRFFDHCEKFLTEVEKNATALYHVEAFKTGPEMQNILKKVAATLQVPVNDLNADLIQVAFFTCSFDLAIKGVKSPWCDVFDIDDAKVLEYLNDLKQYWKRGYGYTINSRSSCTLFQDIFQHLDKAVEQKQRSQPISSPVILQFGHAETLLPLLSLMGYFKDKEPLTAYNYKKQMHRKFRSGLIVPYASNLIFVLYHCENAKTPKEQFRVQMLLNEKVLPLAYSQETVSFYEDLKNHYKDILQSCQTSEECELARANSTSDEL
UniProt Q10469: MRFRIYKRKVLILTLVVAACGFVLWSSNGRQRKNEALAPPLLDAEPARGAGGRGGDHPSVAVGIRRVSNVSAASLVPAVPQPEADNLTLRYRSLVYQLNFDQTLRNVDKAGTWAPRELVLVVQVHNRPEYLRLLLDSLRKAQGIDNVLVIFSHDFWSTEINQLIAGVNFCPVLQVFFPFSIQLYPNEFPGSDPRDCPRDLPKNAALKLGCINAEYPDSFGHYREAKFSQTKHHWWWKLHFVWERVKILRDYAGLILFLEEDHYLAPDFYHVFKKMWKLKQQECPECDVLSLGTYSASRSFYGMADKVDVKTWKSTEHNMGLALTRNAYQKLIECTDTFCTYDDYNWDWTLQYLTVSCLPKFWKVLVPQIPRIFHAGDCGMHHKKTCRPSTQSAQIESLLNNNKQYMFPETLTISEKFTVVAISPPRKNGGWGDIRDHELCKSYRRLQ
UniProt Q9Y6X9: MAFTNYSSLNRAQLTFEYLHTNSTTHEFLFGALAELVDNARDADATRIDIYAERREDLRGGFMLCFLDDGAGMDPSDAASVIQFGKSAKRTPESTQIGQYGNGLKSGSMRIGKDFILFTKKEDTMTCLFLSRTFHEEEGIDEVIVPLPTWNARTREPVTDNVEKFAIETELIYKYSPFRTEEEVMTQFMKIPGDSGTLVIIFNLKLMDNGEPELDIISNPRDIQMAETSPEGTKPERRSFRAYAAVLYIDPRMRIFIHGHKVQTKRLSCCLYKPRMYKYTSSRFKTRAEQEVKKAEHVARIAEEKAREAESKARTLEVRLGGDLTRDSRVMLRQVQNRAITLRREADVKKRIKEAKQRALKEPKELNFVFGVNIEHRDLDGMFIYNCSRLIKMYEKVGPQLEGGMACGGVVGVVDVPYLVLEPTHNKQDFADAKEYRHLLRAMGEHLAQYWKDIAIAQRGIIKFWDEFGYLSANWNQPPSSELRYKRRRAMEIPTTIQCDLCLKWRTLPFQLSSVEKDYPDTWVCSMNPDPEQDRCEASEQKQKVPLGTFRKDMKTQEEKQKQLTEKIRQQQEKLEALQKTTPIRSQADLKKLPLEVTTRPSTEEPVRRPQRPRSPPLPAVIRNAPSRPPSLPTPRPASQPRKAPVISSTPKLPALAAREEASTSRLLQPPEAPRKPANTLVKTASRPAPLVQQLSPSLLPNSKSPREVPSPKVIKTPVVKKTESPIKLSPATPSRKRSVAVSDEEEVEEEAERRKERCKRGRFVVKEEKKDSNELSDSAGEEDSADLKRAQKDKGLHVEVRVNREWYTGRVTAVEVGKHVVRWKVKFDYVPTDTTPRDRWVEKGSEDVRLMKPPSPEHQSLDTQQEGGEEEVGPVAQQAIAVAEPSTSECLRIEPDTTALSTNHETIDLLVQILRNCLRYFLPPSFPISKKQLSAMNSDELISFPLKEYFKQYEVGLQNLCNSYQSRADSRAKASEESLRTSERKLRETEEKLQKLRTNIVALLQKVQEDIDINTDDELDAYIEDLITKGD
UniProt Q9BVC4, whole entry, looked up: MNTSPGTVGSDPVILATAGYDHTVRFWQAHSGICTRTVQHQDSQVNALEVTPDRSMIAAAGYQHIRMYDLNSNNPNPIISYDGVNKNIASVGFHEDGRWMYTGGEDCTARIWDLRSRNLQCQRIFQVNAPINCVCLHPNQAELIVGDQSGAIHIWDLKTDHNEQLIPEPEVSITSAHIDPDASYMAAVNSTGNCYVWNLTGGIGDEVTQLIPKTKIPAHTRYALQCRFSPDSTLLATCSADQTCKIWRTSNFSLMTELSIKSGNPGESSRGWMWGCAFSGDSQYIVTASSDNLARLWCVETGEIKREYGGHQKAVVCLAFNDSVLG
UniProt Q99735: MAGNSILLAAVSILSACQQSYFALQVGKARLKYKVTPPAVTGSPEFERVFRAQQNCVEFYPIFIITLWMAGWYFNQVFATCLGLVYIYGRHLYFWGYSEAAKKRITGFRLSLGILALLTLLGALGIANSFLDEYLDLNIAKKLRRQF
UniProt Q9NV56, whole entry, looked up: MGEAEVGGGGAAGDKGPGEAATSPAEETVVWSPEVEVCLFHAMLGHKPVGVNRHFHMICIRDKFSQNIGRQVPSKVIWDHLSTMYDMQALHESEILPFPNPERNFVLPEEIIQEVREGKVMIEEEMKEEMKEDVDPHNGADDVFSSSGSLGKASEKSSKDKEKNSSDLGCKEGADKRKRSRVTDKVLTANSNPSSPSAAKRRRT
UniProt Q9UBU8, whole entry, looked up: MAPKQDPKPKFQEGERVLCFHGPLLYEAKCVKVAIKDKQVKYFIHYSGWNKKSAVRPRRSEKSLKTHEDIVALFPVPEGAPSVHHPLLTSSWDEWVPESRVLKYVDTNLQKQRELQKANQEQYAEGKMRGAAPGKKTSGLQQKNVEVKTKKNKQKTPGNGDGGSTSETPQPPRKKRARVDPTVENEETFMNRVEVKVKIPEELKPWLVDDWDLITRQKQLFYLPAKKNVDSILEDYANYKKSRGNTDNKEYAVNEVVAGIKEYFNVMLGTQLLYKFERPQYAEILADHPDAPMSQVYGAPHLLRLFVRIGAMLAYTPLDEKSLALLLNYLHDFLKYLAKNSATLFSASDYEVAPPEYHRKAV
UniProt Q5TGZ0: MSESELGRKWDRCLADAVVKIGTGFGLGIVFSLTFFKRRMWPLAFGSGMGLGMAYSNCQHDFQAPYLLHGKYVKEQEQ
UniProt Q70IA6: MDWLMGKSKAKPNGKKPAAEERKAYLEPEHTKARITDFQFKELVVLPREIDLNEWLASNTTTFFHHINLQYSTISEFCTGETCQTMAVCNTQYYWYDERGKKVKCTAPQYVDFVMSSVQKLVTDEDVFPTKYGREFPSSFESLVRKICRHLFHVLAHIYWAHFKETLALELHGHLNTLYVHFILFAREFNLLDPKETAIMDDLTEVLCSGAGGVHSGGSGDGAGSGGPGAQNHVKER

Columns and labels:
Experiment in all cases: log2 fold change, soluble protein after heating vs DMSO (PISA); higher = thermal stabilisation; K562 lysate, 10 uM; active = over 0.2 and 3.5 SD of the protein, either way, in both replicates (recomputed)
nilotinib = compound: Cc1cn(-c2cc(NC(=O)c3ccc(C)c(Nc4nccc(-c5cccnc5)n4)c3)cc(C(F)(F)F)c2)cn1 [nilotinib]
Outline: (§1)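 Log-two fold change in thermal stability relative to solvent controls is reported from duplicates. For each sample, crude K562 extract from dounce-homogenised pellets in PBS pH 7.4 with 1 mM MgCl2, at 1 mg/mL protein, was treated with 10 μM compound for 30 min. Aliquots heated for 3 min across 48°C-58°C were pooled, brought to 0.5% NP-40 at 4°C and cleared at 21,000xg for 90 min. The supernatant was quantified by TMTpro 16plex LC-MS/MS with channel sums equalised.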

[1] = compound: Cc1nc(Nc2n[nH]c3c2CN(C(=O)N[C@H](CN(C)C)c2ccccc2)C3(C)C)c2sccc2n1
Outline: as §1

dasatinib = compound: Cc1nc(Nc2ncc(C(=O)Nc3c(C)cccc3Cl)s2)cc(N2CCN(CCO)CC2)n1 [dasatinib]
Outline: as §1

[2] = compound: Cc1ncc(-c2ccnc(Nc3ccc(S(C)(=O)=O)cc3)n2)n1C(C)C
Outline: as §1

[3] = compound: Cn1cc(-c2ccc3c(c2)CCN3C(=O)Cc2cccc(C(F)(F)F)c2)c2c(N)ncnc21
Outline: as §1

quisinostat = compound: Cn1cc(CNCC2CCN(c3ncc(C(=O)NO)cn3)CC2)c2ccccc21 [quisinostat]
Outline: as §1

tipifarnib = compound: Cn1cncc1[C@@](N)(c1ccc(Cl)cc1)c1ccc2c(c1)c(-c1cccc(Cl)c1)cc(=O)n2C [tipifarnib]
Outline: as §1

[4] = compound: NC(=O)Nc1cc(-c2cccc(F)c2)sc1C(=O)N[C@H]1CCCNC1
Outline: as §1

[5] = compound: NC(=O)c1cnc(N[C@@H]2CCCC[C@@H]2N)nc1Nc1cccc(-n2nccn2)c1
Outline: as §1

[6] = compound: NC1(c2ccc(-c3nc4ccn5c(=O)[nH]nc5c4cc3-c3ccccc3)cc2)CCC1
Outline: as §1

Target	log2 fold change (nilotinib)	log2 fold change [1]	log2 fold change (dasatinib)	log2 fold change [2]	log2 fold change [3]	log2 fold change (quisinostat)	log2 fold change (tipifarnib)	log2 fold change [4]	log2 fold change [5]	log2 fold change [6]
MOB4 (UniProt Q9Y3A3)	inactive: -0.01	inactive: 0.008	inactive: 0.035	inactive: 0.079	inactive: -0.024	inactive: -0.04	inactive: 0.015	inactive: 0.017	inactive: -0.061	inactive: 0.006
MICAL1 isoform 4 (UniProt Q8TDZ2)	inactive: 0.042	inactive: 0.057	inactive: -0.041	inactive: -0.051	inactive: 0.046	inactive: -0.035	inactive: -0.141	inactive: 0.06	inactive: 0.014	inactive: -0.016
MIF4GD isoform 3 (UniProt A9UHW6)	inactive: -0.036	inactive: 0.031	inactive: 0.056	inactive: -0.015	inactive: 0.039	inactive: -0.04	inactive: 0.016	inactive: 0.052	inactive: -0.032	inactive: -0.007
MINK1 (UniProt Q8N4C8)	inactive: -0.227	inactive: -0.206	inactive: -0.077	inactive: 0.199	inactive: -0.016	inactive: -0.062	inactive: 0.289	active: 0.782	inactive: -0.023	inactive: 0.02
MGAT5 (UniProt Q09328)	inactive: 0.035	inactive: 0.01	inactive: -0.005	inactive: 0.012	inactive: 0.002	inactive: 0.051	inactive: -0.02	inactive: -0.019	inactive: 0.022	inactive: -0.003
MLH1 (UniProt P40692)	inactive: 0	inactive: 0.014	inactive: -0.007	inactive: 0.03	inactive: 0.031	inactive: -0.043	inactive: 0.005	inactive: 0.061	inactive: 0.067	inactive: -0.046
MND1 (UniProt Q9BWT6)	inactive: 0.02	inactive: 0.022	inactive: 0.041	inactive: 0.009	inactive: -0.012	inactive: 0.007	inactive: 0	inactive: 0	inactive: -0.002	inactive: 0.068
MKRN1 (UniProt Q9UHC7)	inactive: -0.139	inactive: 0.03	inactive: -0.031	inactive: -0.189	inactive: 0.126	inactive: -0.03	inactive: -0.063	inactive: -0.025	inactive: -0.018	inactive: 0.055
MGAT4B isoform 3 (UniProt Q9UQ53)	inactive: 0.091	inactive: -0.041	inactive: -0.009	inactive: -0.063	inactive: 0.142	inactive: 0.194	inactive: -0.037	inactive: -0.036	inactive: 0.058	inactive: 0.058
MICAL3 (UniProt Q7RTP6)	inactive: 0.021	inactive: 0.022	inactive: -0.003	inactive: -0.012	inactive: 0.004	inactive: -0.012	inactive: -0.002	inactive: -0.003	inactive: 0.026	inactive: -0.011
MPRIP isoform 2 (UniProt Q6WCQ1)	inactive: 0.032	inactive: -0.023	inactive: 0.02	inactive: 0.024	inactive: -0.044	inactive: -0.062	inactive: 0.012	inactive: 0.001	inactive: -0.021	inactive: 0.059
MINPP1 (UniProt Q9UNW1)	inactive: 0.027	inactive: -0.016	inactive: 0.079	inactive: 0.002	inactive: 0.026	inactive: 0.039	inactive: 0.009	inactive: -0.021	inactive: -0.005	inactive: 0.002
MGAT2 (UniProt Q10469)	inactive: 0.006	inactive: -0.07	inactive: 0.03	inactive: 0.078	inactive: -0.065	inactive: -0.009	inactive: 0.13	inactive: 0.033	inactive: -0.006	inactive: 0.016
MRPL2 (UniProt Q5T653)	inactive: -0.04	inactive: 0.019	inactive: -0.032	inactive: 0.04	inactive: -0.047	inactive: 0.01	inactive: -0.05	inactive: -0.003	inactive: 0.022	inactive: -0.063
MORC2 (UniProt Q9Y6X9)	inactive: -0.012	inactive: -0.02	inactive: -0.046	inactive: 0.006	inactive: 0.051	inactive: -0.05	inactive: 0.024	inactive: 0.049	inactive: 0.028	inactive: -0.001
MOB3B (UniProt Q86TA1)	inactive: 0.076	inactive: -0.009	inactive: -0.021	inactive: 0.066	inactive: -0.041	inactive: -0.083	inactive: 0.078	inactive: 0.035	inactive: 0.05	inactive: -0.01
MNAT1 (UniProt P51948)	inactive: -0.033	inactive: 0.019	inactive: -0.035	inactive: -0.02	inactive: -0.008	inactive: -0.01	inactive: 0.012	inactive: 0.005	inactive: 0.005	inactive: -0.014
MGAT1 (UniProt P26572)	inactive: -0.032	inactive: -0.003	inactive: -0.037	inactive: 0.004	inactive: 0.088	inactive: 0.003	inactive: -0.186	inactive: 0.023	inactive: 0.083	inactive: 0.056
MLST8 (UniProt Q9BVC4)	inactive: -0.011	inactive: -0.006	inactive: 0.046	inactive: 0.079	inactive: -0.041	inactive: -0.058	inactive: 0.076	inactive: 0.043	inactive: -0.065	inactive: -0.067
MGST2 (UniProt Q99735)	inactive: 0.02	inactive: 0.038	inactive: -0.096	inactive: 0.027	inactive: 0.011	inactive: -0.053	inactive: -0.104	inactive: -0.022	inactive: 0.034	inactive: -0.012
MRPL20 (UniProt Q9BYC9)	inactive: -0.059	inactive: -0.04	inactive: -0.083	inactive: 0.006	inactive: 0.053	inactive: -0.024	inactive: -0.018	inactive: 0.023	inactive: 0.086	inactive: -0.058
MPI (UniProt P34949)	inactive: 0.002	inactive: -0.02	inactive: -0.035	inactive: 0.019	inactive: -0.022	inactive: -0.025	inactive: 0.009	inactive: 0.029	inactive: 0.016	inactive: -0.026
MRGBP (UniProt Q9NV56)	inactive: 0.068	inactive: -0.168	inactive: 0.051	inactive: 0.079	inactive: -0.067	inactive: 0.089	inactive: -0.046	inactive: 0.012	inactive: 0.058	inactive: -0.047
MORF4L1 isoform 2 (UniProt Q9UBU8)	inactive: 0.037	inactive: 0.069	inactive: -0.013	inactive: -0.009	inactive: 0	inactive: 0	inactive: -0.009	inactive: -0.007	inactive: -0.008	inactive: -0.018
MICOS10 (UniProt Q5TGZ0)	inactive: 0.028	inactive: -0.062	inactive: -0.138	inactive: -0.034	inactive: 0.064	inactive: 0	inactive: -0.076	inactive: 0.049	inactive: -0.062	inactive: -0.008
MRPL17 (UniProt Q9NRX2)	inactive: -0.031	inactive: 0.001	inactive: -0.013	inactive: -0.095	inactive: 0.046	inactive: 0.046	inactive: 0.006	inactive: 0	inactive: -0.008	inactive: 0.014
MICALL1 (UniProt Q8N3F8)	inactive: 0.004	inactive: 0.004	inactive: 0.002	inactive: -0.002	inactive: 0.005	inactive: -0.013	inactive: 0.067	inactive: -0.007	inactive: 0.002	inactive: -0.007
MOB2 isoform 3 (UniProt Q70IA6)	inactive: 0.002	inactive: 0.031	inactive: -0.049	inactive: 0.009	inactive: 0.047	inactive: -0.068	inactive: 0.068	inactive: 0.034	inactive: 0.046	inactive: -0.025
MRFAP1 (UniProt Q9Y605)	inactive: 0.009	inactive: -0.027	inactive: 0.046	inactive: -0.139	inactive: 0.006	inactive: 0.061	inactive: -0.053	inactive: -0.105	inactive: 0.013	inactive: -0.052

Part of the list above, set out differently.

| Target | log2 fold change (nilotinib) | log2 fold change [1] | log2 fold change (dasatinib) | log2 fold change [2] | log2 fold change [3] | log2 fold change (quisinostat) | log2 fold change (tipifarnib) | log2 fold change [4] | log2 fold change [5] | log2 fold change [6] |
| --- | --- | --- | --- | --- | --- | --- | --- | --- | --- | --- |
| MINK1 (UniProt Q8N4C8) | inactive: -0.227 | inactive: -0.206 | inactive: -0.077 | inactive: 0.199 | inactive: -0.016 | inactive: -0.062 | inactive: 0.289 | active: 0.782 | inactive: -0.023 | inactive: 0.02 |
| MGAT5 (UniProt Q09328) | inactive: 0.035 | inactive: 0.01 | inactive: -0.005 | inactive: 0.012 | inactive: 0.002 | inactive: 0.051 | inactive: -0.02 | inactive: -0.019 | inactive: 0.022 | inactive: -0.003 |
| MLH1 (UniProt P40692) | inactive: 0 | inactive: 0.014 | inactive: -0.007 | inactive: 0.03 | inactive: 0.031 | inactive: -0.043 | inactive: 0.005 | inactive: 0.061 | inactive: 0.067 | inactive: -0.046 |
| MND1 (UniProt Q9BWT6) | inactive: 0.02 | inactive: 0.022 | inactive: 0.041 | inactive: 0.009 | inactive: -0.012 | inactive: 0.007 | inactive: 0 | inactive: 0 | inactive: -0.002 | inactive: 0.068 |
| MKRN1 (UniProt Q9UHC7) | inactive: -0.139 | inactive: 0.03 | inactive: -0.031 | inactive: -0.189 | inactive: 0.126 | inactive: -0.03 | inactive: -0.063 | inactive: -0.025 | inactive: -0.018 | inactive: 0.055 |
| MGAT4B isoform 3 (UniProt Q9UQ53) | inactive: 0.091 | inactive: -0.041 | inactive: -0.009 | inactive: -0.063 | inactive: 0.142 | inactive: 0.194 | inactive: -0.037 | inactive: -0.036 | inactive: 0.058 | inactive: 0.058 |
| MICAL3 (UniProt Q7RTP6) | inactive: 0.021 | inactive: 0.022 | inactive: -0.003 | inactive: -0.012 | inactive: 0.004 | inactive: -0.012 | inactive: -0.002 | inactive: -0.003 | inactive: 0.026 | inactive: -0.011 |
